Measured values as given in article PMC10162677.
No constants are given. Whether binding was seen depends on the method and setting. Binding seen in cells or lysates may run through a third protein. Where a sequence is shown, tags or fusion partners need not be part of it.

Molecular target: T1, GFP-tagged CD68 (UniProt P34810)
T1 sequence: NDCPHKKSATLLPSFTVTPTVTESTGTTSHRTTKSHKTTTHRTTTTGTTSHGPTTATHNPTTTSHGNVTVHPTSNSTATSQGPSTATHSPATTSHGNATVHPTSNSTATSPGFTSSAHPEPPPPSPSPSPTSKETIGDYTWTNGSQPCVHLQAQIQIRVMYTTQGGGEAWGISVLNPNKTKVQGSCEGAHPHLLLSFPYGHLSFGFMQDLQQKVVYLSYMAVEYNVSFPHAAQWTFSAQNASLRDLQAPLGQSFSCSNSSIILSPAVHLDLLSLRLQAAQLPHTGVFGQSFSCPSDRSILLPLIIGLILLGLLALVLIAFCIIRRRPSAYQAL
Experiment: co-IP; HEK293T cotransfected, harvested 48 hours after transfection; lysis in 150 mM NaCl, 50 mM tris-HCl pH 7.5, 1% Triton X-100, 0.1% deoxycholic acid; GFP-Trap beads (anti-GFP) 3 hours at 4°C; Western blot with antibodies against Myc or GFP

binding: no binding
B1: Myc-tagged human TREM2 (TREM2-mychis fusion) (receptor, UniProt Q9NZC2 19-230)
chain: HNTTVFQGVAGQSLQVSCPYDSMKHWGRRKAWCRQLGEKGPCQRVVSTHNLWLLSFLRRWNGSTAITDDTLGGTLTITLRNLQPHDAGLYQCQSLHGSEADTLRKVLVEVLADPLDHRDAGDLWFPGESESFEDAHVEHSISRSLLEGEIPFPPTSILLLLACIFLIKILAASALWAAAWHGQKPGTHPPSELDCGHDPGYQLQTLPGLRDT
